PubChem BioAssay AID1159578 – Peter MacCallum Cancer Centre | 2015

Screen: 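siRNA pools altering how lymphatic endothelial cells close a scratch wound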 (primary screen)
System: human lymphatic endothelial cells
Reagents: siRNA pool against human genes, 40 nM
Duration: 48 h after transfection
Measured: 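High-content imaging of dye-stained cells in a scratch assay measures filled wound area and nuclei per well; duplicate means given as ratio to mock and robust z-score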
Direction: migration robust z-score: higher = faster migration into the scratch; nuclei per well: higher = more cells in the well
Rule for the call: 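Migration changed when robust z exceeds 2 or falls below -2 and mean nuclei number is at least 3300; otherwise not called changed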
Calls: active = migration changed; inactive = no migration change, or too few cells
Shown is a random part of about 18,000 reagents. Over the whole deposit, about 1,030 (5.7%) got an active call. 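Inactive calls also include pools with fewer than 3300 nuclei, whose migration was not assessed.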 Raw values are not corrected between plates. Unmarked entries are inactive. The numbers tell different reagents against one gene apart. Further read-outs or replicates are left out here.

| gene knocked down | pool no. | migration robust z-score | migration class with cell-count check | nuclei per well, duplicate mean |
| --- | --- | --- | --- | --- |
| IFNA16 | 1 | 0 | migration z between -2 and 2; enough cells | 4978 |
| C1orf198 | 1 | 0.56 | migration z between -2 and 2; enough cells | 5366 |
| PXYLP1 | 1 | -2.54 (active) | migration z below -2; enough cells | 4247 |
| CELSR2 | 1 | -0.68 | migration z between -2 and 2; enough cells | 5302 |
| WDR53 | 1 | -1.12 | migration z between -2 and 2; enough cells | 5894 |
| S100A16 | 1 | 1.1 | migration z between -2 and 2; enough cells | 5550 |
| POTEH | 1 | -0.66 | migration z between -2 and 2; enough cells | 3689 |
| CT45A3 | 1 | -0.18 | migration z between -2 and 2; enough cells | 4226 |
| CT45A3 | 2 | 0.92 | migration z between -2 and 2; enough cells | 5476 |
| PDGFB | 1 | -0.36 | migration z between -2 and 2; enough cells | 6392 |
| FAM220A | 1 | 0.68 | migration z between -2 and 2; enough cells | 5888 |
| SH3GL3 | 1 | 0.68 | migration z between -2 and 2; enough cells | 4844 |
| NTMT1 | 1 | -1.6 | migration z between -2 and 2; enough cells | 6088 |
| SRPK1 | 1 | 0.03 | migration z between -2 and 2; enough cells | 5590 |
| ANKS3 | 1 | 0.04 | migration z between -2 and 2; enough cells | 5578 |
| ZNF334 | 1 | -0.16 | migration z between -2 and 2; enough cells | 6407 |
| TLR2 | 1 | 0.96 | migration z between -2 and 2; enough cells | 6848 |
| AHCYL2 | 1 | -0.28 | migration z between -2 and 2; enough cells | 5997 |
| CDC34 | 1 | 2.08 (active) | migration z above 2; enough cells | 3579 |
| PPIL6 | 1 | -0.13 | migration z between -2 and 2; enough cells | 5670 |
| KCNK15 | 1 | 0.1 | migration z between -2 and 2; enough cells | 6106 |
| TAGLN | 1 | 1.72 | migration z between -2 and 2; enough cells | 5018 |
| FAM149A | 1 | 0.16 | migration z between -2 and 2; enough cells | 5606 |
| PFDN2 | 1 | 0.88 | migration z between -2 and 2; enough cells | 5778 |
| PIGR | 1 | -2.02 (active) | migration z below -2; enough cells | 4574 |
| ABHD18 | 1 | 1.23 | migration z between -2 and 2; enough cells | 5286 |
| FDPS | 1 | 0.56 | migration z between -2 and 2; enough cells | 7277 |
| CASP8 | 1 | 0.2 | migration z between -2 and 2; enough cells | 5698 |
| LDLRAD3 | 1 | -0.98 | migration z between -2 and 2; enough cells | 5122 |
| NOP14 | 1 | 0.46 | migration z between -2 and 2; enough cells | 6902 |
| B4GALNT3 | 1 | 0.94 | migration z between -2 and 2; enough cells | 6600 |
| TCOF1 | 1 | -0.68 | migration z between -2 and 2; enough cells | 6223 |
| ATP1B2 | 1 | -1.6 | migration z between -2 and 2; enough cells | 4209 |
| UFM1 | 1 | 0.9 | migration z between -2 and 2; enough cells | 5746 |
| APBA1 | 1 | 1.3 | migration z between -2 and 2; enough cells | 5992 |
| TULP1 | 1 | 0.66 | migration z between -2 and 2; enough cells | 5570 |
| CHRNA7 | 1 | -0.6 | migration z between -2 and 2; enough cells | 4564 |
| IGF1 | 1 | 0.2 | migration z between -2 and 2; enough cells | 5134 |

Continued, starting with the last 4 of the part before.
| gene knocked down | pool no. | migration robust z-score | migration class with cell-count check | nuclei per well, duplicate mean |
| --- | --- | --- | --- | --- |
| APBA1 | 1 | 1.3 | migration z between -2 and 2; enough cells | 5992 |
| TULP1 | 1 | 0.66 | migration z between -2 and 2; enough cells | 5570 |
| CHRNA7 | 1 | -0.6 | migration z between -2 and 2; enough cells | 4564 |
| IGF1 | 1 | 0.2 | migration z between -2 and 2; enough cells | 5134 |
| CSMD3 | 1 | -1.08 | migration z between -2 and 2; enough cells | 4934 |
| EIF5B | 1 | -0.68 | migration z between -2 and 2; enough cells | 5492 |
| GALNTL5 | 1 | -0.72 | migration z between -2 and 2; enough cells | 5146 |
| SQSTM1 | 1 | -1.68 | migration z between -2 and 2; enough cells | 5220 |
| KRT83 | 1 | -0.76 | migration z between -2 and 2; enough cells | 6739 |
| CCDC121 | 1 | 0.2 | migration z between -2 and 2; enough cells | 6236 |
| SHD | 1 | -1.25 | migration z between -2 and 2; enough cells | 3752 |
| WDR5 | 1 | -0.16 | migration z between -2 and 2; enough cells | 5591 |
| NDUFV1-DT | 1 | -1.5 | migration z between -2 and 2; enough cells | 6058 |
| CEACAM6 | 1 | -0.68 | migration z between -2 and 2; enough cells | 5492 |
| FKBP7 | 1 | 0.72 | migration z between -2 and 2; enough cells | 3770 |
| BCKDHB | 1 | 0.2 | migration z between -2 and 2; enough cells | 5844 |
| MOGAT3 | 1 | 0.57 | migration z between -2 and 2; enough cells | 5448 |
| JPT1 | 1 | 0.04 | migration z between -2 and 2; enough cells | 6530 |
| RNF19A | 1 | 1.22 | migration z between -2 and 2; enough cells | 6112 |
| LPAR6 | 1 | 1.15 | migration z between -2 and 2; enough cells | 5617 |
| XYLB | 1 | -0.24 | migration z between -2 and 2; enough cells | 6165 |
| PHC2 | 1 | -1.9 | migration z between -2 and 2; enough cells | 3564 |
| ARHGAP10 | 1 | 0.42 | migration z between -2 and 2; enough cells | 5784 |
